According to PubChem BioAssay AID493014 (National Center for Advancing Translational Sciences (NCATS), 2011):
Several values for one entry are separate records, joined by “and”; a condition that tells them apart may be missing. Equal entries are not always repeated. This is one part of the list. The main result of the screen is listed elsewhere. These columns were measured beside it and carry no call. Most of these compounds were active or inconclusive in the main read-out, so they are no random draw. The note in brackets gives the kind of curve behind each potency; many fits are weak.

Experiment: qHTS Assay to Find Inhibitors of Chronic Active B-Cell Receptor Signaling
Details: ABC-DLBCL IkBa-CBG/CBR reporter, luminescence ratio (green luciferase fused to IkBa over red control in TMD8 lymphoma cells), 4 h
In short: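 Concentration-response series (up to 46 uM) were applied to TMD8 dual-reporter cells for 4 h at 37C with doxycycline. Green/red ratio, after filter-overlap correction, defined %Activity; red signal alone was normalised to basal cells and zero luminescence.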

[1] = measured here: CBR red luminescence, cell number
[2] = measured here: IkBa-CBG green luminescence

For `O=C(CN1C(=O)C2C3CCC(C3)C2C1=O)OCC(=O)c1ccccc1` (stereo unspecified), which AC50 [1] is on record?
Its AC50 is 25.1 µM [rising, single point].

With `CC(=O)c1ccsc1-c1c(C)cc2oc(=O)cc(-c3ccccc3)c2c1C` as the molecule, how does the AC50 [1] read?
Its AC50 is 6.51 µM [rising, single point].

And the AC50 [2]?
The AC50 was 2.91 µM [falling, full curve].

With `c1ccc(-c2ccc(OCCCn3cncn3)cc2)cc1` as the molecule, how does the AC50 [1] read?
Its AC50 is 0.461 µM [rising, full curve].

For `CC(C)c1ccc(NC(=O)Cc2cn(C)c3ccccc23)cc1`, which AC50 [1] is on record?
The AC50 was 3.55 µM [rising, full curve].

For `CCSc1ccc2c(c1)N(CCCN1CCN(C)CC1)c1ccccc1S2`, which AC50 [1] is on record?
Its AC50 is 23.1 µM [falling, single point].

Which AC50 [1] does the source give for `CCOc1ccc(S(=O)(=O)N(C)c2ccc(OCC(=O)Nc3nc(-c4cc(OC)ccc4OC)cs3)cc2)cc1` here?
The AC50 was 32.6 µM [rising, partial curve, poor fit].

For `COc1cc(Br)cc(-c2nc3c(c(=O)[nH]c(=O)n3Cc3ccccc3)n2C)c1O`, which AC50 [1] is on record?
The AC50 was 35.5 µM [falling, single point].

With `CCN(CC)S(=O)(=O)c1ccc(-c2nnc(SCC(=O)N3CCc4ccccc43)o2)cc1` as the molecule, how does the AC50 [1] read?
Its AC50 is 3.66 µM [falling, partial curve, poor fit].

Which AC50 [1] does the source give for `O=C(CSc1nnc(-c2cccnc2)n1Cc1ccco1)N1c2ccccc2Sc2ccccc21` here?
Its AC50 is 0.0651 µM [falling, full curve].

For `Cc1ccc(S(=O)(=O)N2CCOCC2)cc1NC(=O)C(c1ccc(Cl)cc1)C(C)C` (stereo unspecified), which AC50 [1] is on record?
Its AC50 is 20.6 µM [falling, single point].

Which AC50 [1] does the source give for `Cc1cc(NC(=O)CSCC(=O)OCC(=O)c2cccc(Br)c2)no1` here?
The AC50 was 32.6 µM [rising, partial curve, poor fit].

With `COc1cccc(-c2c(C(=O)N/N=C/c3ccoc3)nnn2-c2nonc2N)c1` as the molecule, how does the AC50 [1] read?
Its AC50 is 20 µM [falling, single point].

For `COc1ccc(S(=O)(=O)N(C)C)cc1NC(=O)CSc1nc(N)cc(N)n1`, which AC50 [1] is on record?
Its AC50 is 6.31 µM [rising, full curve, poor fit].

For `Cc1nc(NCc2cccnc2)c2c3c(sc2n1)CC(C)CC3` (stereo unspecified), which AC50 [1] is on record?
Its AC50 is 12.6 µM [rising, partial curve].

For `COc1ccc(-c2cc(-c3ccccc3)nc3ncnn23)cc1`, which AC50 [1] is on record?
Its AC50 is 11.2 µM [falling, single point].

With `COc1ccccc1C(=O)NN=C1CCN(Cc2ccccc2)CC1` as the molecule, how does the AC50 [1] read?
The AC50 was 0.058 µM [falling, full curve, poor fit].

Which AC50 [2] does the source give for `COc1cccc(NC(=O)CN(C)C(=O)CSCC(=O)Nc2ccc(C)cc2)c1` here?
Its AC50 is 16.4 µM [falling, partial curve, poor fit].

With `Cc1ccc(-c2csc3ncnc(Nc4ccc(C(=O)O)cc4)c23)cc1` as the molecule, how does the AC50 [1] read?
The AC50 was 2.51 µM [falling, full curve, poor fit].

With `O=C(/C=C/c1cccs1)c1cc(Br)ccc1OC(=O)N1CCOCC1` as the molecule, how does the AC50 [2] read?
Its AC50 is 16.4 µM [falling, partial curve, poor fit].

Which AC50 [1] does the source give for `COC(=O)C1=C(C)N(Cc2ccccc2)C(=S)N[C@H]1c1ccccc1` here?
Its AC50 is 10 µM [falling, partial curve] and 12.6 µM [falling, single point].

With `CCCCC(=O)Nc1ccc(NC(=O)c2ccc([N+](=O)[O-])cc2)cc1OC` as the molecule, how does the AC50 [1] read?
The AC50 was 3.26 µM [rising, full curve, poor fit].

Which AC50 [1] does the source give for `COc1ccc(CC(NC(C)=O)C(=O)NC2CCN(C(=O)NCc3ccccc3)CC2)cc1` (stereo unspecified) here?
The AC50 was 0.251 µM [rising, full curve, poor fit].

For `COC(=O)Cn1c(=NC(=O)c2cc(-c3cccs3)nc3ccccc23)sc2cc(S(N)(=O)=O)ccc21`, which AC50 [2] is on record?
The AC50 was 6.51 µM [rising, partial curve, poor fit].

With `CCOC(=O)c1[nH]c(C)c(C(=O)OCC(=O)N2CCc3ccccc32)c1C` as the molecule, how does the AC50 [1] read?
Its AC50 is 1.46 µM [falling, full curve, poor fit].

For `CC1=NC(=O)C(N=Nc2cccc(C(=O)O)c2)N1c1ccccc1` (stereo unspecified), which AC50 [1] is on record?
Its AC50 is 0.82 µM [falling, full curve].

What about the AC50 [2] of the same molecule?
Its AC50 is 18.4 µM [rising, partial curve, poor fit].

With `Cc1ccc(/C=c2\sc3n(c2=O)CN(c2ccc(Br)cc2)CN=3)o1` as the molecule, how does the AC50 [1] read?
Its AC50 is 2.24 µM [falling, full curve].

For `O=C(Nc1cccc2ccccc12)N1CCN(c2ccc(F)cc2)CC1`, which AC50 [1] is on record?
Its AC50 is 1.03 µM [falling, partial curve, poor fit].

Which AC50 [1] does the source give for `CN(C)c1cc(Nc2cccc(O)c2)c([N+](=O)[O-])c2nonc12` here?
The AC50 was 6.31 µM [rising, single point].

Which AC50 [1] does the source give for `COc1cc(-c2ccc3c(=O)c4ccccc4n(C)c3c2)cc(OC)c1OC` here?
The AC50 was 3.16 µM [falling, partial curve, poor fit].

With `COc1cccc(N2CC(NS(=O)(=O)c3ccc4ccccc4c3)CC2=O)c1` (stereo unspecified) as the molecule, how does the AC50 [1] read?
The AC50 was 29.1 µM [falling, single point].

Which AC50 [1] does the source give for `O=C(COC(=O)c1ccccc1C(=O)c1ccccc1)NCCc1ccc(Cl)cc1Cl` here?
Its AC50 is 29.1 µM [falling, single point].

With `N/C(=N\OC(=O)c1cccc(Br)c1)c1ccc(Br)cc1` as the molecule, how does the AC50 [1] read?
Its AC50 is 7.08 µM [rising, partial curve].

Which AC50 [1] does the source give for `O=C(Nc1ccccc1)c1ccc(-c2ccccc2Cl)o1` here?
Its AC50 is 16.4 µM [falling, partial curve].

Which AC50 [1] does the source give for `O=C(c1cn(-c2ccc(Cl)c(Cl)c2)nn1)C1CC1` here?
The AC50 was 1.26 µM [rising, full curve, poor fit].

With `CCCCOc1ccc(C(=O)NCC(=O)NC2CC2)cc1` as the molecule, how does the AC50 [1] read?
Its AC50 is 0.731 µM [rising, full curve, poor fit].

Which AC50 [1] does the source give for `O=C(c1ccccc1)c1ccc2c(c1)OCCCO2` here?
Its AC50 is 11.2 µM [falling, partial curve].

For `CN(CC(=O)Nc1cccc(F)c1)C(=O)c1ccc(COc2ccccc2)cc1`, which AC50 [1] is on record?
Its AC50 is 3.26 µM [falling, partial curve].

Which AC50 [1] does the source give for `Fc1ccc(-c2nc(-c3cnccn3)no2)c(Cl)c1` here?
Its AC50 is 12.6 µM [rising, partial curve].

For `O=C(CSc1nc2ccc(Nc3nc(N4CCOCC4)nc(N4CCOCC4)n3)cc2s1)N1CCOCC1`, which AC50 [2] is on record?
Its AC50 is 2.91 µM [falling, partial curve, poor fit].

Which AC50 [1] does the source give for `C/C(=N\NC(=O)c1nn(C)cc1Cl)c1ccncc1` here?
Its AC50 is 23.1 µM [falling, partial curve].

For `O=C(Nc1ccc(Cl)cc1)c1cc(S(=O)(=O)NC2CCCCCC2)ccc1F`, which AC50 [1] is on record?
Its AC50 is 10 µM [falling, partial curve].

Which AC50 [1] does the source give for `Cc1cc(C(=O)CSc2ccc(F)cc2)cc(C)c1OC(=S)N(C)C` here?
Its AC50 is 14.6 µM [falling, partial curve, poor fit].

Which AC50 [1] does the source give for `CN(C)c1nc(N)nc(CSc2nnnn2C)n1` here?
The AC50 was 23.1 µM [rising, single point].

Which AC50 [1] does the source give for `Cn1cccc1CNCc1ccccc1Cl` here?
The AC50 was 28.2 µM [falling, partial curve, poor fit].

With `Cn1nccc1C(=O)N1CCN(c2ccc(F)cc2)CC1` as the molecule, how does the AC50 [1] read?
Its AC50 is 29.1 µM [rising, partial curve, poor fit].

With `C/C(=N\NC(=O)c1sccc1C)c1cccnc1` as the molecule, how does the AC50 [1] read?
The AC50 was 3.16 µM [falling, partial curve, poor fit].

For `NS(=O)(=O)c1ccc(NC(=O)COC(=O)CCCN2C(=O)c3cccc4cccc(c34)C2=O)cc1`, which AC50 [1] is on record?
Its AC50 is 6.51 µM [rising, single point].

Which AC50 [1] does the source give for `COc1ccc(S(=O)(=O)c2cnc3ccccc3n2)cc1` here?
The AC50 was 14.1 µM [falling, partial curve, poor fit].

Which AC50 [1] does the source give for `COc1ccc(NCCC(O)c2ccc(Cl)cc2)cc1` (stereo unspecified) here?
Its AC50 is 8.91 µM [rising, partial curve, poor fit].

Which AC50 [1] does the source give for `Cc1cccc(NC(=S)NC(=O)/C=C/c2ccccc2)n1` here?
Its AC50 is 35.5 µM [falling, single point].

Which AC50 [1] does the source give for `FC(F)(F)c1cc(-c2cccs2)nc(NCc2ccco2)n1` here?
Its AC50 is 1.26 µM [falling, full curve, poor fit].

For `OC1(c2ccc(Cl)c(Cl)c2)C[n+]2ccccc2N1Cc1ccccc1` (stereo unspecified), which AC50 [1] is on record?
Its AC50 is 10 µM [falling, partial curve].

Which AC50 [1] does the source give for `CCc1noc(C)c1C(=O)Nc1nc2c(F)cc(F)cc2s1` here?
Its AC50 is 16.4 µM [falling, single point].

With `COc1cc(NC(=O)c2cc(C)no2)cc(OC)c1OC` as the molecule, how does the AC50 [1] read?
Its AC50 is 25.1 µM [falling, single point].

With `COC(=O)c1cncc(O)c1` as the molecule, how does the AC50 [1] read?
Its AC50 is 5.17 µM [falling, partial curve, poor fit].

Which AC50 [1] does the source give for `CC1(C)CC2CC(C)(CN2CC(O)c2ccccc2)C1` (stereo unspecified) here?
Its AC50 is 10 µM [rising, partial curve, poor fit].

For `COc1ccc(CCNC(=O)c2coc(=O)c(Br)c2)cc1`, which AC50 [1] is on record?
The AC50 was 35.5 µM [falling, single point].

For `CC(=O)c1cccc(NC(=O)NC2CCCCCCC2)c1`, which AC50 [1] is on record?
Its AC50 is 3.98 µM [rising, full curve, poor fit].

For `CN(C)c1ccc(-c2nn3c(-c4ccccc4Cl)nnc3s2)cc1`, which AC50 [1] is on record?
The AC50 was 2.82 µM [rising, partial curve, poor fit].

And the AC50 [2]?
The AC50 was 2.51 µM [falling, partial curve, poor fit].

For `O=C(C[N+]1(CC#Cc2ccccc2)CCCCC1)c1ccc(Cl)cc1`, which AC50 [1] is on record?
Its AC50 is 2.82 µM [falling, partial curve, poor fit].

For `Nc1ccc(CN2CCOCC2)cc1`, which AC50 [1] is on record?
The AC50 was 35.5 µM [rising, single point].

For `CC(C)=CCC/C(C)=C/CC(C)(C)CNCCN1CCNCC1`, which AC50 [1] is on record?
The AC50 was 15.8 µM [falling, partial curve, poor fit].

For `CN(C)/C=N/NC(=O)c1ccccc1Cl`, which AC50 [1] is on record?
The AC50 was 1.12 µM [falling, partial curve, poor fit].
